In assay [1] the target is kinase-dead (Ile1250Thr) ALK (UniProt Q9UM73). The assay can be described thus: co-IP; cells coexpressing WT, Phe1174Leu or Ile1250Thr ALK with FLAG-tagged CDK9; IP with the indicated antibodies, WB of FLAG-tagged CDK9; IP buffer 25 mM Tris pH 7.4, 150 mM NaCl, 0.1% NP-40, 1 mM EDTA, 10% glycerol, 4 C.
The target in assay [2] is constitutively active (Phe1174Leu) ALK (UniProt Q9UM73). The description is as above.
Assay [3] concerns the target WT ALK (expressed from plasmid) (UniProt Q9UM73). The description is as above.
In assay [4] the target is phosphorylated anaplastic lymphoma kinase (p-ALK) (human (endogenous in SKOV3 and SUM149)) (UniProt Q9UM73). Briefly: proximity ligation; Duo-link assay for p-ALK and CDK9 in cells (red dots); SKOV3 cells with or without 0.5 uM lorlatinib for 24 h; SUM149 TNBC parental cells and cells with acquired PARP inhibitor resistance (nos. 6 and 15).

The chains behind the UniProt entries cited, without tags or fusion partners. Where a name states a change or a piece, a line headed by the entry shows the natural chain unless it says otherwise. A line that says so, or that is headed by a name, gives the form on record, which may keep a tag or linker. Residues count along the entry.
phosphorylated anaplastic lymphoma kinase (p-ALK) (human (endogenous in SKOV3 and SUM149)) (Q9UM73, residues 19-1620): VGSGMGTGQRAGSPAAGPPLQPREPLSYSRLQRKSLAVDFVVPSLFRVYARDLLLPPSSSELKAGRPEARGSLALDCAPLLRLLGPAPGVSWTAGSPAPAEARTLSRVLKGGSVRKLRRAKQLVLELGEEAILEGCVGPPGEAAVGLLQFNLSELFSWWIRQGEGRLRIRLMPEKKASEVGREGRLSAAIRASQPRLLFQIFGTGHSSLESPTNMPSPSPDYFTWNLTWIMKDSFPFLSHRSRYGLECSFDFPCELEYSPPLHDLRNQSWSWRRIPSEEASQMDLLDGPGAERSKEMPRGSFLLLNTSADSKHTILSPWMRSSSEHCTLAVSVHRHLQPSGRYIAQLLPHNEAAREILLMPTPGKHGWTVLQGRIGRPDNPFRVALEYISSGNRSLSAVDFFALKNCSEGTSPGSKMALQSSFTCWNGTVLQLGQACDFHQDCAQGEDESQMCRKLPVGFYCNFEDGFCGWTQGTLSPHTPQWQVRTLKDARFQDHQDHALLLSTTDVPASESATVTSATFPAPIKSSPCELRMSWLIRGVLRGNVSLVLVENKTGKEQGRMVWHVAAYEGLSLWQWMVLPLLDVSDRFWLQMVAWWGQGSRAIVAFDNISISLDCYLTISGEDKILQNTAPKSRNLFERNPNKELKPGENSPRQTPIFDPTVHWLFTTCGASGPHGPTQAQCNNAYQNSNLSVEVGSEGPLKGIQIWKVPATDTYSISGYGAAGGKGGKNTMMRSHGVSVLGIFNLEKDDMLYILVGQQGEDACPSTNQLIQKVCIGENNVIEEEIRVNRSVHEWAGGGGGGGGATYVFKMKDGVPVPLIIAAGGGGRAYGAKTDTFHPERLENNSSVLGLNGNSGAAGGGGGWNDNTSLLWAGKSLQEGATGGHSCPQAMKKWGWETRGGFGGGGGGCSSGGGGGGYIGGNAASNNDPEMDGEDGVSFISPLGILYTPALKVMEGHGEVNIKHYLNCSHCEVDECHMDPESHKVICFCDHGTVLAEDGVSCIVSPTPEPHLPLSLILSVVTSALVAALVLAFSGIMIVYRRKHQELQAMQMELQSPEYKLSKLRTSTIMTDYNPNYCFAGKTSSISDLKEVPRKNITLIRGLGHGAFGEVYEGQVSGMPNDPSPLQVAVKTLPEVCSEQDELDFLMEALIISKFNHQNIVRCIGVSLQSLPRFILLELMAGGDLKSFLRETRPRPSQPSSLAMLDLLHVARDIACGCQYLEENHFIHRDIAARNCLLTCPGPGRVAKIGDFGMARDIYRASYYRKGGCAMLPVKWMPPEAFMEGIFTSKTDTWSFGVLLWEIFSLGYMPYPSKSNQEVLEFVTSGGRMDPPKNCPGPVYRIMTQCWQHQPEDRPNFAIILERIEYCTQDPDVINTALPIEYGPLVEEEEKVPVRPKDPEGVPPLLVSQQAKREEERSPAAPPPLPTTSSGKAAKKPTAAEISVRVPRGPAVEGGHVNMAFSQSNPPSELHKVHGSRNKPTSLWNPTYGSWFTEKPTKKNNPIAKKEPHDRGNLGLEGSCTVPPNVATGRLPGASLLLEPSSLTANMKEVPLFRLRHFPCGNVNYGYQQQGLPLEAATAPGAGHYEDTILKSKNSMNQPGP
kinase-dead (Ile1250Thr) ALK (Q9UM73, form named): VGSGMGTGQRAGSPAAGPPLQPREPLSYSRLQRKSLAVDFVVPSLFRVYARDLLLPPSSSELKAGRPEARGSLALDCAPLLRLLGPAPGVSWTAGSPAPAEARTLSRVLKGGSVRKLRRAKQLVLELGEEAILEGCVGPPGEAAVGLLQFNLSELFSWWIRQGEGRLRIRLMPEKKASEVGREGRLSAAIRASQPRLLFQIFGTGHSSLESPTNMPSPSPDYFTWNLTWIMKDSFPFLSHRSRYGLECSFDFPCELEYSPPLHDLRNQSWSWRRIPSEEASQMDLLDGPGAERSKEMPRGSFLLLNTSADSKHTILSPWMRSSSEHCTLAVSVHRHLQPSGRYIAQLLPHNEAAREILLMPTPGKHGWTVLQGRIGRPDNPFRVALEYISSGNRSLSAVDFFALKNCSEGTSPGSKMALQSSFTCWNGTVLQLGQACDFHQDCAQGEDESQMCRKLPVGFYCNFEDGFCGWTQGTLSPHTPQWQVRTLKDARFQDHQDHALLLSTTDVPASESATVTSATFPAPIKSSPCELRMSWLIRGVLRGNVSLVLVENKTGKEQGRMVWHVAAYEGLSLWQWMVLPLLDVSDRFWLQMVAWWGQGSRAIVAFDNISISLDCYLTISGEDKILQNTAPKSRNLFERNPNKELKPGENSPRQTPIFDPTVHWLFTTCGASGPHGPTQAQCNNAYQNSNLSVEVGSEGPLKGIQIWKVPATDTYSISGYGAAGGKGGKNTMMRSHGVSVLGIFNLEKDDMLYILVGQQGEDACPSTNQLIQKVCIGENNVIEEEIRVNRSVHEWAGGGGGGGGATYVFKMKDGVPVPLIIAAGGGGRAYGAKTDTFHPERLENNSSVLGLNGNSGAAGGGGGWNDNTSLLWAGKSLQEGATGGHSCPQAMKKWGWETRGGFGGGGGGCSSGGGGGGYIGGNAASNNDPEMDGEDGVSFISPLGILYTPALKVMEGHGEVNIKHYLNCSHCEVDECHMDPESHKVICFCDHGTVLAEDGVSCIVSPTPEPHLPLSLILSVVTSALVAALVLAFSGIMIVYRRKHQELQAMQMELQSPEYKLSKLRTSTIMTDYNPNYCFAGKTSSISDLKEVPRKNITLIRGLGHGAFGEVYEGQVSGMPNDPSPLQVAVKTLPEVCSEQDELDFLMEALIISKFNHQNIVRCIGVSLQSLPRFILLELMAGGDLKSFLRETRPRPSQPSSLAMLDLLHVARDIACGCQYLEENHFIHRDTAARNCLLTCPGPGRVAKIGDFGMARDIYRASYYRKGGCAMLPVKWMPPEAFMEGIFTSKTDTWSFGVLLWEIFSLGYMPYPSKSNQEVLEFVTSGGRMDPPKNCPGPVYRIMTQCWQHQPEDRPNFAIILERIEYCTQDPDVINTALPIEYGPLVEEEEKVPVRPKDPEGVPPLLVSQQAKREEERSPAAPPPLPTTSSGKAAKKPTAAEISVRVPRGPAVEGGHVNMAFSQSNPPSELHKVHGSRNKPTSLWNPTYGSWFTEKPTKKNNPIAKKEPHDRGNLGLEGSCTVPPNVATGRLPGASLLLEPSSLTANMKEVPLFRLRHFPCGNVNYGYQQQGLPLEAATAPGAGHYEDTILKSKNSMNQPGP
constitutively active (Phe1174Leu) ALK (Q9UM73, form named): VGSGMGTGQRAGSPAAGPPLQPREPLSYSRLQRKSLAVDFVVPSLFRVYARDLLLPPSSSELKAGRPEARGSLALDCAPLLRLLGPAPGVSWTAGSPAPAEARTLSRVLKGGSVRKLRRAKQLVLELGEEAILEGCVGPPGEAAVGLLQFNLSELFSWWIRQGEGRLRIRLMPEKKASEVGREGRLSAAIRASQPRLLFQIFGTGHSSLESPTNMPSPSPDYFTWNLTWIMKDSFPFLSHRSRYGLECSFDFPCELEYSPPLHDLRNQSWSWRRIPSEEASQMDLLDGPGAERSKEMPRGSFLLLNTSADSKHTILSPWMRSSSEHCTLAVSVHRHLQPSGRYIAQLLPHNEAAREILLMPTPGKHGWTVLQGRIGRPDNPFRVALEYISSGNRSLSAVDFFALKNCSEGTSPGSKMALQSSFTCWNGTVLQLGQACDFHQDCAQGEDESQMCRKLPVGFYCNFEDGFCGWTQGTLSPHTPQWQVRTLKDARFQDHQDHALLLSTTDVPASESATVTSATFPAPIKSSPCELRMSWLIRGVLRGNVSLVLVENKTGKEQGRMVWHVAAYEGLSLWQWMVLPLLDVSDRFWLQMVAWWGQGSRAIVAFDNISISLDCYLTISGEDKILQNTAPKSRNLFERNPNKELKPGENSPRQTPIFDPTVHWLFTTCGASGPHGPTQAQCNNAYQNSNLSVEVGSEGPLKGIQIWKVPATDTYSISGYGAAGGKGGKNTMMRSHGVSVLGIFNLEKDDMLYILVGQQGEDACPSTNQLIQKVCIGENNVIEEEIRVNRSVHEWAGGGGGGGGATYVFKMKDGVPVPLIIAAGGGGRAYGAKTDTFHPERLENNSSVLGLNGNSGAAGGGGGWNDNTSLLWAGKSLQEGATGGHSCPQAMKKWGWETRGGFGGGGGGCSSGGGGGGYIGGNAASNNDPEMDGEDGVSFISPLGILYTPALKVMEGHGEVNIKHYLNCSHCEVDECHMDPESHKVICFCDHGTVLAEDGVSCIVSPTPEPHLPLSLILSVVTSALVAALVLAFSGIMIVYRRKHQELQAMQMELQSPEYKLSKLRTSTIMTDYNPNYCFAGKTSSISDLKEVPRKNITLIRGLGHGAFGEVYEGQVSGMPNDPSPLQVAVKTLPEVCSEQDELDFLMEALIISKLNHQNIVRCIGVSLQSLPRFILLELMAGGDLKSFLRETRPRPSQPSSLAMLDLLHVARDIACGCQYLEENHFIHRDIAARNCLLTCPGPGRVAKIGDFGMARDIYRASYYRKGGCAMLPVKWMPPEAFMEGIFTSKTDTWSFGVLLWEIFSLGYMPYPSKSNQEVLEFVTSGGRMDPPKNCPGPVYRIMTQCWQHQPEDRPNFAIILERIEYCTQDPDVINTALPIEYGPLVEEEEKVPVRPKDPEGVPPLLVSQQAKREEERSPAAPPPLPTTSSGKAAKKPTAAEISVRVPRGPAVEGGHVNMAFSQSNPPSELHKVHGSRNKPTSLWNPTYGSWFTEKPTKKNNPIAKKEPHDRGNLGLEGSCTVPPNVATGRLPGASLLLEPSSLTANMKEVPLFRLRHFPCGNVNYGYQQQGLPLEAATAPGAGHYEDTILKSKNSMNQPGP
UniProt P50750: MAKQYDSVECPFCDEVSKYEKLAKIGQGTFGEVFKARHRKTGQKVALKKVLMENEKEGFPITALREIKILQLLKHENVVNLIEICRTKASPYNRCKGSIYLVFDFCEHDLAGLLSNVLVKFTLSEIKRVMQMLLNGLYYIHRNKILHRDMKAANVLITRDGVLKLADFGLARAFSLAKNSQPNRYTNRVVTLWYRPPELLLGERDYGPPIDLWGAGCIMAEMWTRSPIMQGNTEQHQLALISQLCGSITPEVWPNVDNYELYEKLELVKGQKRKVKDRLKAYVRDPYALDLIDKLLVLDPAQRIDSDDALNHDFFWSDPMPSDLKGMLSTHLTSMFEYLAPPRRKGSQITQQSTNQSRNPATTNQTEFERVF

No constants are given. Whether binding was seen depends on the method and setting. Binding seen in cells or lysates may run through a third protein. Some results given as binding are weak or reduced against the parent protein; the word gives no strength.

“FLAG-tagged CDK9 (coexpressed with ALK plasmids) (from UniProt P50750 1-372) (enzyme)”: the binding entry in assay [1] was “no binding”; in assay [2], “binds”; in assay [3] it was “binds”.
Consider “cyclin-dependent kinase 9 (CDK9), endogenous (from UniProt P50750 1-372) (enzyme)”, for which the binding entry in assay [4] was “binds”.
